No constants are given. Whether binding was seen depends on the method and setting. Some binding calls cover weakened binding; strength is not graded here.
T1: TK1 target (coating antigen) (human) (UniProt P04183)
T1 sequence (looked up): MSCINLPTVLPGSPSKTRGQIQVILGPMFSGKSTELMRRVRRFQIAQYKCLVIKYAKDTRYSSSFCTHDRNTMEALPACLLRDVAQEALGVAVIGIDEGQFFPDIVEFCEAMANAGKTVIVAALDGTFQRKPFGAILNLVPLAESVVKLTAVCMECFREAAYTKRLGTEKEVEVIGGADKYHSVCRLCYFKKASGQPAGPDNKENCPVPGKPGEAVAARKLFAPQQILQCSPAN

B1: SEQ ID NO 39 (scFv)
scFv: AVTLDESGGGLQTPGGALSLVCKASGFSFSRHGMGWVRQAPGKGLEWVASINSGGSYTNYGAAVQGRATIWRDNGQSTVRLQLNNLRAEDTATYYCARDAGCTGGGTCYAYADRIDAWGHGTEVIVSSGGGGSGGGGSGGGGSQAALTLPSSVSVNPGETVKITCSGSSGSYGWYQQKSPGSAPVTVIYYNGKRPSDIPSRFSGSKSGSTGTLTITGVQAEDEAVYFCGSRDSSYDGIFGAGTTLTVL
B2: SEQ ID NO 36 (scFv)
scFv: AVTLDESGGGLQTPGGTVSLVCKASGFTFSDRGMGWMRQAPGKGLEFVAGVDDSGSSRDYAPAVKGRATISRDNGQDILRLQLNNLRAEDTATYYCTRGSVVGFIDAWGHGTEVIVSSGGGGSGGGGSGGGGSQAALTQPASVSASPGETVKITCSGGGRFAGSYYYGWYQQKSPGSAPVTVIYDSTNRPSNIPSRFSGSLSGSTTTLTITGVQADDEAVYFCGSIDSSYVGIFGAGTTLTVL
B3: SEQ ID NO 33 (scFv)
scFv: AVTLDESGGGLQTPGGGLSLVCKASGFTFSNHGMGWVRQAPGKGLEWVAGINSGAGSYTNYGAAVKGRATISRDNGQSTVRLQLNNLRAEDTGTYFCARSVYGGSISLITDVIDTWGHGTEVTVSSGGGGSGGGGSGGGGSQAALTQPASVSANLGETVKITCSGGANYYGSYYYGWYQQKSPGSAPVTVINDNTKRPSNIPSRFSGSTSGSTGTLTITGVQADDEAVYFCGSYDSSAGYAGIFGAGTTLTVL
B4: SEQ ID NO 42 (scFv)
scFv: AVTLDESGGGLQTPGGGLSLVCKASGFTFSNHGMGWVRQAPGKGLEWVAGINSGAGSYTNYGAAVKGRATISRDNGQSTVRLQLNNLRAEDTATYYCARSVYGGSISLITDVIDTWGHGTEVIVSSGGGGSGGGGSGGGGSQAALTQPSSVSANPGETVKITCSGSYSNYYGWYQQKSPGSAPVTVIYENNNRPSDIPSRFSGSKSGSTNTLTITGVQVEDEAVYFCGGYDDSTDSGIFGAGTTLTVL

The binders below were run against T1, TK1 target (coating antigen) (human) (assay: phage ELISA, limiting dilution of coated TK1 antigen (0.125 µg-10 µg/well)).

binding, binds:
B1
B2
B3
B4

Reference: US20250244331A1
